Measurements from the supplement of paper PMC10849652.
This is one part of the list.

Sequences of proteins named here, by UniProt entry; tags and fusion partners are left off. A change or cut given only in a name is not applied to a line headed by its entry.
UniProt Q674X7: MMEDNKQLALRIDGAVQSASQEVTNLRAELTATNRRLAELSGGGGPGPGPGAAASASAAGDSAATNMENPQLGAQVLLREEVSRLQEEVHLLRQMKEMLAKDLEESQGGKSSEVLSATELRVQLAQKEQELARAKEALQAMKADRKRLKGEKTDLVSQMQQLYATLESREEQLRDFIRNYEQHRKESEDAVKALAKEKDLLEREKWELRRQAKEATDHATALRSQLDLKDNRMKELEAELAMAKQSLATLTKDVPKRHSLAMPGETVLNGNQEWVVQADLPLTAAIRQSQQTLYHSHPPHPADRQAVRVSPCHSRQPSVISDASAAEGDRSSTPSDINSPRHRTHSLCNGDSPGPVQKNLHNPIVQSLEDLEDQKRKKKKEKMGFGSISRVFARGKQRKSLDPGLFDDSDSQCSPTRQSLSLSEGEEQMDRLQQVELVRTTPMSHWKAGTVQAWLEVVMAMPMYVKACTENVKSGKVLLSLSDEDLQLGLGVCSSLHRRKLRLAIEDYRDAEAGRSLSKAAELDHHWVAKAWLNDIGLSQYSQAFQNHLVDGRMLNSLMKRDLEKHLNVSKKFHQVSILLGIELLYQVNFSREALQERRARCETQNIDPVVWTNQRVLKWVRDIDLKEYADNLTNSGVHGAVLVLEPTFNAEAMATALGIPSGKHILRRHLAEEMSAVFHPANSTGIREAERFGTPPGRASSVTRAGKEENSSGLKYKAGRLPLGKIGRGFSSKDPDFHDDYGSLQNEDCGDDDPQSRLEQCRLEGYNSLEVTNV
UniProt Q9Y448: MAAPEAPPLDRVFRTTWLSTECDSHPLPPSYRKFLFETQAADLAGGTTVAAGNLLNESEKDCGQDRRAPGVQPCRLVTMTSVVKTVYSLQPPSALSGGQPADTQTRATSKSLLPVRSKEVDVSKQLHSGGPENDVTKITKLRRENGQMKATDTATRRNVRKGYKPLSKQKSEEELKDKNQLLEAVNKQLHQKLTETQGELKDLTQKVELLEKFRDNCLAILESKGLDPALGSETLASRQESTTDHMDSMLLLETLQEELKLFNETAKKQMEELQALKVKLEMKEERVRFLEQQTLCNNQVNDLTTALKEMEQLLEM
UniProt Q07866: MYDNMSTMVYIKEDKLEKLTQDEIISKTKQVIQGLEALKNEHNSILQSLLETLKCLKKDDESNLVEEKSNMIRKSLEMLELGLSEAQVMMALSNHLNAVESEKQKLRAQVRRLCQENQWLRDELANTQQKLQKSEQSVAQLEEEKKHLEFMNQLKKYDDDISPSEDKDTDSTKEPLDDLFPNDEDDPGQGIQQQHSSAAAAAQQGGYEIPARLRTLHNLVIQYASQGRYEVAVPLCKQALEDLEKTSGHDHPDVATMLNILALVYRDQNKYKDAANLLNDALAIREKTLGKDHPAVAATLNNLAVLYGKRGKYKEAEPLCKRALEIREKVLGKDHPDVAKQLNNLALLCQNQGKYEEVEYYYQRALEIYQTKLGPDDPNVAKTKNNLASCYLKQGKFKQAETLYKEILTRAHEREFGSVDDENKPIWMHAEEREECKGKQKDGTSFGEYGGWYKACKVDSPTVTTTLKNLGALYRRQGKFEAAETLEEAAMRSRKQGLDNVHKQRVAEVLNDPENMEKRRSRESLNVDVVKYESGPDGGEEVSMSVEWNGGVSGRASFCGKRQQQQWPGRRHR
UniProt Q8IY47: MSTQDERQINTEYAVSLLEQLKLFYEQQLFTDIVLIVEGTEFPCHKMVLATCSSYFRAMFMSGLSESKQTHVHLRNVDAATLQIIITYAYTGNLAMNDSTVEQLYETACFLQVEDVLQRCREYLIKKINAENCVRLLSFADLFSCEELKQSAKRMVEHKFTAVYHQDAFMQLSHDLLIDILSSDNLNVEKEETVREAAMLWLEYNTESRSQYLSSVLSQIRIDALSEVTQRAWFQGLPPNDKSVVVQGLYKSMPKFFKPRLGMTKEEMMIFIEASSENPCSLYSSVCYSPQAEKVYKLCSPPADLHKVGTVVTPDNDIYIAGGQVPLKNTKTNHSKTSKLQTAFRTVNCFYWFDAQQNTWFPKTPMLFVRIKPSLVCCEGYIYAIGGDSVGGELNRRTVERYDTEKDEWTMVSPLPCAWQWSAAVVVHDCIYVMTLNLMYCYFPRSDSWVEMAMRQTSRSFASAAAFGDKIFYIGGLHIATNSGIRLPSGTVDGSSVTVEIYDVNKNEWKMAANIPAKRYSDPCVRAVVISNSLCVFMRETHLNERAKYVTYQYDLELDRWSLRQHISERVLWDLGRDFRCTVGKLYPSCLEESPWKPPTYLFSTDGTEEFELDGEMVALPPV
UniProt Q9NVR0: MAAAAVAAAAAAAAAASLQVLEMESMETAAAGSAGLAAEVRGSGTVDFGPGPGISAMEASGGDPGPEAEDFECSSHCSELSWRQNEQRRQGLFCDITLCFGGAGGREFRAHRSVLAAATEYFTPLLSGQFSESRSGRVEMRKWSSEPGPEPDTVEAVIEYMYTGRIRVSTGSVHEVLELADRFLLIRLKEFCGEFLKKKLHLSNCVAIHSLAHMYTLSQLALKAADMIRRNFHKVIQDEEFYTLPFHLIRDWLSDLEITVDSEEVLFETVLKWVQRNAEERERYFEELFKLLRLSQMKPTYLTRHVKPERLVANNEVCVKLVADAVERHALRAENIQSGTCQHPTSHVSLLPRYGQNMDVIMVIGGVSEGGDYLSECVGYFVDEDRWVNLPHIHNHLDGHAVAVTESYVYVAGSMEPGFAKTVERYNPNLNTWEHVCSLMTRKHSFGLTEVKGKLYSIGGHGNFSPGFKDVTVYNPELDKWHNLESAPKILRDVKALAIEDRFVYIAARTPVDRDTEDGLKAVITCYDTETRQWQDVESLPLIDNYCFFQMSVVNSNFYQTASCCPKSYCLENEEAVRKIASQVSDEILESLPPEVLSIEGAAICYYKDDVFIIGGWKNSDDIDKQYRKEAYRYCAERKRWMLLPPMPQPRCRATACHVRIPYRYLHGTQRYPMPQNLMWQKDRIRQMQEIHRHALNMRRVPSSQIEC
UniProt Q06136: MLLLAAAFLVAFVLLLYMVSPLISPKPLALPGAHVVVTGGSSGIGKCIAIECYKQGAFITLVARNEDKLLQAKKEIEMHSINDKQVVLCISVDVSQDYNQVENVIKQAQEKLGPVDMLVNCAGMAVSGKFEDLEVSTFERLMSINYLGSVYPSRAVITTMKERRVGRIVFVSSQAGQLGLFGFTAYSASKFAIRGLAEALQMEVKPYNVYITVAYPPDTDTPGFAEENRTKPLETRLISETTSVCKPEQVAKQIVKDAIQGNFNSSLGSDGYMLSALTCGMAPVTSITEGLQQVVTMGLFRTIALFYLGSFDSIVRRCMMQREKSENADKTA
UniProt P33176: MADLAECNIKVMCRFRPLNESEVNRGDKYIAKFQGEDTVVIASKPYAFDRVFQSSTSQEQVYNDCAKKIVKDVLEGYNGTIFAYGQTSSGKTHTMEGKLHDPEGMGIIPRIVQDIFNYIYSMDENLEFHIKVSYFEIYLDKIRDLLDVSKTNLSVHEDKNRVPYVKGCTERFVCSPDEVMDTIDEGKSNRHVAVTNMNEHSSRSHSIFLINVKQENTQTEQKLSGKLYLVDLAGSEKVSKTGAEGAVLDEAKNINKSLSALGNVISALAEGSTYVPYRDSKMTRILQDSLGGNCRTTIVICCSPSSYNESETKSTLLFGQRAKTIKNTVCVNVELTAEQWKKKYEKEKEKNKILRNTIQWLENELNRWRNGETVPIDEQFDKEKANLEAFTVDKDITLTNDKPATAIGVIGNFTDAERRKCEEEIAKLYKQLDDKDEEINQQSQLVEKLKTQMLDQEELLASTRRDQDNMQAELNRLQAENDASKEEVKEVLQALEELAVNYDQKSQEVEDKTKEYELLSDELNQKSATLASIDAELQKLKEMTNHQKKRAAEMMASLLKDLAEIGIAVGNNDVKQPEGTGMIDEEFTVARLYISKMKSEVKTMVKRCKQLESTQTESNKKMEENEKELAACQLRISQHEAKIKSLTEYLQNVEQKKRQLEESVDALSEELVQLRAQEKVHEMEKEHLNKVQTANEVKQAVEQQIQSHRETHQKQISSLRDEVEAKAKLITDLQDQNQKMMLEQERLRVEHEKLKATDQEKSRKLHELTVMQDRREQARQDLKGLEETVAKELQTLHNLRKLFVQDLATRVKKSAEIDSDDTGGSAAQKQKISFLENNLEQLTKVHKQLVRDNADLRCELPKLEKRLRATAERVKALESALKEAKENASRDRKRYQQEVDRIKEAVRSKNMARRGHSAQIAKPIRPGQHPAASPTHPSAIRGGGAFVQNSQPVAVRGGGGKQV
UniProt Q92945: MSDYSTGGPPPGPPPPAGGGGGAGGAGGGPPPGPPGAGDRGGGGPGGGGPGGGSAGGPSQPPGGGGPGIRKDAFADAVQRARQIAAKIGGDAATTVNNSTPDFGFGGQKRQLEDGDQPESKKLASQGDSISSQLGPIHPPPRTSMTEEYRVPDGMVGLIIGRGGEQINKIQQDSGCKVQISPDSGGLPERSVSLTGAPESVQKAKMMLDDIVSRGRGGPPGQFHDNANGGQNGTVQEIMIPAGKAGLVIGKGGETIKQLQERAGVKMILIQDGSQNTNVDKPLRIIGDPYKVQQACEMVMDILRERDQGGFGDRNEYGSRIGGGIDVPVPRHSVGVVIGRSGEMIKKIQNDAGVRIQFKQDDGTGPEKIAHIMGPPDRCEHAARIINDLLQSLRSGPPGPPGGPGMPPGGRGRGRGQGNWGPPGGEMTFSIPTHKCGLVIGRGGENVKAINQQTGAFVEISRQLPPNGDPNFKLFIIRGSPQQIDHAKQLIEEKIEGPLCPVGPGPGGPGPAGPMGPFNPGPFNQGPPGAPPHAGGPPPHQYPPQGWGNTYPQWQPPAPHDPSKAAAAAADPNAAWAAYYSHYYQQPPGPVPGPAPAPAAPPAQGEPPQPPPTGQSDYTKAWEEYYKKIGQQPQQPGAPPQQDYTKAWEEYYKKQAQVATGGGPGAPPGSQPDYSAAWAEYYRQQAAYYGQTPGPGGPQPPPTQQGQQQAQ
UniProt Q7L273: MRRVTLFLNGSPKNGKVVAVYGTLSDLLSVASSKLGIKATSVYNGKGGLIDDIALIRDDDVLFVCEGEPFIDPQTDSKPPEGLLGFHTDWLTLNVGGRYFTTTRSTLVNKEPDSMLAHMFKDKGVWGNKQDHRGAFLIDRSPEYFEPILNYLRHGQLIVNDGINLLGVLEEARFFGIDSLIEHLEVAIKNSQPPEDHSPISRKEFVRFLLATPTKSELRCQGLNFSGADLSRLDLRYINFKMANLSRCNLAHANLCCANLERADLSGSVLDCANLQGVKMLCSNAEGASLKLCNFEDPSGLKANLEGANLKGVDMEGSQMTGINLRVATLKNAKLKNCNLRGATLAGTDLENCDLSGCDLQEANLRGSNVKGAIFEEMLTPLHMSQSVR
UniProt Q9UK76: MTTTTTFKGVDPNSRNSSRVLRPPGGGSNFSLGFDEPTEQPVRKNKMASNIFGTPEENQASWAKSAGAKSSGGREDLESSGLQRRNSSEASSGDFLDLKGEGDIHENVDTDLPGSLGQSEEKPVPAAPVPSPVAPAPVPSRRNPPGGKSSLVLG
UniProt P17535: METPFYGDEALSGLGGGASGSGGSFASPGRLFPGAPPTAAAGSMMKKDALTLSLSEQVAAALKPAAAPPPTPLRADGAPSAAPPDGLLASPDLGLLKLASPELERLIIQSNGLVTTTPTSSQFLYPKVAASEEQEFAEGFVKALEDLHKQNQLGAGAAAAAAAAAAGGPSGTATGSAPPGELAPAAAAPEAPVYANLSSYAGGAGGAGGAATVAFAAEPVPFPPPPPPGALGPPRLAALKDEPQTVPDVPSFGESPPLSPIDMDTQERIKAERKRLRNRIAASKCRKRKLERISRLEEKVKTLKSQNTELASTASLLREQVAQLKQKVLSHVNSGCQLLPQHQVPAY
UniProt Q96SI1: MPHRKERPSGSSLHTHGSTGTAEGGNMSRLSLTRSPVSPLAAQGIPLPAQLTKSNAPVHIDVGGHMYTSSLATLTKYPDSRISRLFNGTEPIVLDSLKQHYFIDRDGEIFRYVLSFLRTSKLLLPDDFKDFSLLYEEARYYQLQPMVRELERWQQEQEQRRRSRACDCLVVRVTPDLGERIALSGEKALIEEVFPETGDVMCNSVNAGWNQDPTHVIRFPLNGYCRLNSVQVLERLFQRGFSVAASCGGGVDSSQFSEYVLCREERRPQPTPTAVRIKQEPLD
UniProt P50053: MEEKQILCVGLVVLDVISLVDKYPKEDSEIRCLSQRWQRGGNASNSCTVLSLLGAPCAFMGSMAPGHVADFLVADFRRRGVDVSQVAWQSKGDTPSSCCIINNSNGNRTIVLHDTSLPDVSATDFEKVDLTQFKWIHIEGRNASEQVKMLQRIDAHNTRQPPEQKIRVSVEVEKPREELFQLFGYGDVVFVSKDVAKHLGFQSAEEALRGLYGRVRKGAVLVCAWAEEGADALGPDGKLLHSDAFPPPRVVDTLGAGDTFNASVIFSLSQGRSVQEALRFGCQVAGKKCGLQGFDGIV

compound: C1COCCN1CCN2C3=CC=CC=C3N=C2NC(=O)C4=CC(=CC=C4)[N+](=O)[O-] [IRAK-1-4 Inhibitor I]; assay: log2 fold change, soluble protein after heating vs DMSO (PISA); higher = thermal stabilisation; K562 cells, 10 uM, 30 min; active = over 0.2 and 3.5 SD of the protein, either way, in both replicates (recomputed)
How it was run: (§1)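 K562 cells (2×10^6 cells/mL) were treated with 10 μM compound for 30 min, and aliquots were heated for 3 min over 48°C-58°C. Pooled aliquots were extracted in PBS with 0.5% NP-40 at 4°C, and the supernatant after 21,000xg for 90 min was measured by TMTpro 16plex LC-MS/MS with channel sums equalised. Reported thermal stability, relative to control samples and from duplicates, is a log2 fold change.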

Target | log2 fold change
KAZN isoform 3 (UniProt Q674X7) | inactive: -0.059
KNSTRN (UniProt Q9Y448) | inactive: -0.078
KDM5C (UniProt P41229) | inactive: 0.141
KLC1 isoform 6 (UniProt Q07866) | inactive: 0.014
KBTBD2 (UniProt Q8IY47) | inactive: 0.034
KLHL11 (UniProt Q9NVR0) | inactive: 0.031
KDSR (UniProt Q06136) | inactive: -0.028
KIF5B (UniProt P33176) | inactive: 0.016
KIAA0100 (UniProt Q14667) | inactive: -0.043
KHSRP (UniProt Q92945) | inactive: 0.058
KCTD9 (UniProt Q7L273) | inactive: 0.037

compound: C=CC(=O)N1CCC[C@@H](n2nc(-c3ccc(Oc4ccccc4)cc3)c3c(N)ncnc32)C1 [ibrutinib]; assay: as above
How it was run: as §1

Target | log2 fold change
KATNB1 (UniProt Q9BVA0) | inactive: -0.041
KMT2D isoform 3 (UniProt O14686) | inactive: -0.126
KCMF1 (UniProt Q9P0J7) | inactive: 0
JPT1 (UniProt Q9UK76) | inactive: 0.025
JUND (UniProt P17535) | inactive: 0.011
JMJD1C (UniProt Q15652) | inactive: -0.073
KDM8 isoform 3 (UniProt Q8N371) | inactive: 0.018
JAGN1 (UniProt Q8N5M9) | inactive: 0.03
KIDINS220 (UniProt Q9ULH0) | inactive: 0.022
KCTD15 (UniProt Q96SI1) | inactive: -0.032
KCTD3 (UniProt Q9Y597) | inactive: 0.012
KIAA1143 (UniProt Q96AT1) | inactive: 0.025
KHK isoform 2 (UniProt P50053) | inactive: 0
KIF23 (UniProt Q02241) | inactive: 0.123
KIAA1522 isoform 2 (UniProt Q9P206) | inactive: -0.036
KLF3 (UniProt P57682) | inactive: -0.107
KIF2A isoform 4 (UniProt O00139) | inactive: 0.012

Target | log2 fold change
KIF5A (UniProt Q12840) | inactive: -0.008
IVNS1ABP (UniProt Q9Y6Y0) | inactive: 0.107
KPNA3 (UniProt O00505) | inactive: -0.023
KIAA0319L (UniProt Q8IZA0) | inactive: 0.027
KCNAB2 (UniProt Q13303) | inactive: -0.021
KAZN isoform 3 (UniProt Q674X7) | inactive: -0.005
KNSTRN (UniProt Q9Y448) | inactive: -0.048
KDM5C (UniProt P41229) | inactive: -0.194
KLC1 isoform 6 (UniProt Q07866) | inactive: -0.027
KBTBD2 (UniProt Q8IY47) | inactive: 0.025
KLHL11 (UniProt Q9NVR0) | inactive: -0.081
KDSR (UniProt Q06136) | inactive: 0.037
KIF5B (UniProt P33176) | inactive: -0.025
KIAA0100 (UniProt Q14667) | inactive: -0.019
KHSRP (UniProt Q92945) | inactive: -0.003
KCTD9 (UniProt Q7L273) | inactive: 0.038

compound: CC(=O)c1cnc2ccc(-c3cc(Cl)c(O)c(Cl)c3)nc2c1N[C@H]1CC[C@H](CN(C)C)CC1; assay: as above
How it was run: as §1

Target | log2 fold change
KATNB1 (UniProt Q9BVA0) | inactive: -0.031
KMT2D isoform 3 (UniProt O14686) | inactive: -0.184
KCMF1 (UniProt Q9P0J7) | inactive: 0.06
JPT1 (UniProt Q9UK76) | inactive: 0.006
JUND (UniProt P17535) | inactive: -0.013
JMJD1C (UniProt Q15652) | inactive: -0.079
KDM8 isoform 3 (UniProt Q8N371) | inactive: -0.038
JAGN1 (UniProt Q8N5M9) | inactive: -0.002
KIDINS220 (UniProt Q9ULH0) | inactive: -0.045
KCTD15 (UniProt Q96SI1) | inactive: -0.035
KCTD3 (UniProt Q9Y597) | inactive: -0.066
KIAA1143 (UniProt Q96AT1) | inactive: 0.148
KHK isoform 2 (UniProt P50053) | inactive: 0.029
KIF23 (UniProt Q02241) | inactive: -0.123
KIAA1522 isoform 2 (UniProt Q9P206) | inactive: -0.034
KLF3 (UniProt P57682) | inactive: 0.064
KIF2A isoform 4 (UniProt O00139) | inactive: -0.022

Target | log2 fold change
KIF5A (UniProt Q12840) | inactive: -0.018
IVNS1ABP (UniProt Q9Y6Y0) | inactive: 0.038
KPNA3 (UniProt O00505) | inactive: -0.019
KIAA0319L (UniProt Q8IZA0) | inactive: -0.056
KCNAB2 (UniProt Q13303) | inactive: 0.002
KAZN isoform 3 (UniProt Q674X7) | inactive: -0.019
KNSTRN (UniProt Q9Y448) | inactive: -0.087
KDM5C (UniProt P41229) | inactive: -0.014
KLC1 isoform 6 (UniProt Q07866) | inactive: -0.033
KBTBD2 (UniProt Q8IY47) | inactive: -0.009
KLHL11 (UniProt Q9NVR0) | inactive: 0.044
KDSR (UniProt Q06136) | inactive: 0.09
KIF5B (UniProt P33176) | inactive: -0.033
KIAA0100 (UniProt Q14667) | inactive: -0.007
KHSRP (UniProt Q92945) | inactive: -0.005
KCTD9 (UniProt Q7L273) | inactive: -0.123
